# Measurements taken from the supplement of paper PMC8728848.
# Some of the results follow.
# B1: GS13971A-bth-447-22-447 (Bacteroides thetaiotaomicron) (protein)
# chain: EDVDNERSKGMFSASQSGFSTIEVYDLGPLNKIDLSIAKAGLEDTGGTVTFSVEQSLLDSLNNADGTSYQLLPPECYTIENATYSVSPGGDRRVTGGSLVYDPHKIYNLCGFDELKYVLPLRVSSTGTPMNSDRTATLYGFIVKEAIVRLASTGGDFVVEGGTTTSPMNLDTEISFENEWDLTTSFATKGADYVDNYNSANSTYYIPLPSDFYTLPDVTIAKGKTTGGSAISLLGETLPPGNYLLPVSLGGLSGQGDASINIDKETVANYFVIKQGGPINRDHWTVTANTEEKTGEVSAAYPHNGQTISLIDGEINTFWHSKWQGGEVAPPYEIILDMGKENSVSQLGLIARQNALTSMNLEIYAGDDGETWNLIGKYFFDGSIKTEQMVPVKACDARWIRIYIPTLGSGSSVGHLAEIYVYGTDK
# Key:
# Assay in all cases: glycan array binding signal (z-score within array); higher = stronger binding
# Conditions in all cases: glycan notation: IUPAC condensed, linker removed
# Kdn(a2-3)Gal(b1-4)Glc = target: Kdn(a2-3)Gal(b1-4)Glc
# Outline: (§1)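 The Consortium for Functional Glycomics database supplied 3228 glycan arrays, of which those lacking an available protein sequence were dropped. The binding signal, a within-array Z-score, was averaged across arrays of the same protein sequence and across linkers. Negative scores can be read as non-binding.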
# Kdn(a2-3)Gal(b1-4)GlcNAc = target: Kdn(a2-3)Gal(b1-4)GlcNAc
# Outline: as §1
# [1] = target: Kdn(a2-3)Gal(b1-4)[Fuc(a1-3)]GlcNAc
# Outline: as §1
# Kdn(a2-6)Gal(b1-4)GlcNAc = target: Kdn(a2-6)Gal(b1-4)GlcNAc
# Outline: as §1
# [2] = target: Man(a1-2)Man(a1-2)Man(a1-3)Man
# Outline: as §1
# [3] = target: Man(a1-2)Man(a1-2)Man(a1-6)[Man(a1-3)]Man
# Outline: as §1
# Man(a1-2)Man(a1-3)Man = target: Man(a1-2)Man(a1-3)Man
# Outline: as §1
# [4] = target: Man(a1-2)Man(a1-3)[Man(a1-2)Man(a1-6)]Man
# Outline: as §1
# [5] = target: Man(a1-2)Man(a1-3)[Man(a1-2)Man(a1-6)]Man(a1-6)[Man(a1-2)Man(a1-2)Man(a1-3)]Man
# Outline: as §1
# [6] = target: Man(a1-2)Man(a1-3)[Man(a1-2)Man(a1-6)]Man(a1-6)[Man(a1-2)Man(a1-2)Man(a1-3)]Man(b1-4)GlcNAc(b1-4)GlcNAc
# Outline: as §1
# [7] = target: Man(a1-2)Man(a1-3)[Man(a1-6)]Man(a1-6)[Man(a1-2)Man(a1-3)]Man(b1-4)GlcNAc(b1-4)GlcNAc
# Outline: as §1
# [8] = target: Man(a1-2)Man(a1-6)[Man(a1-3)]Man(a1-6)[Man(a1-2)Man(a1-2)Man(a1-3)]Man
# Outline: as §1
# [9] = target: Man(a1-2)Man(a1-6)[Man(a1-3)]Man(a1-6)[Man(a1-2)Man(a1-2)Man(a1-3)]Man(b1-4)GlcNAc(b1-4)GlcNAc
# Outline: as §1
# Man(a1-3)[Man(a1-6)]Man = target: Man(a1-3)[Man(a1-6)]Man
# Outline: as §1
# [10] = target: Man(a1-3)[Man(a1-6)]Man(a1-6)[Man(a1-2)Man(a1-3)]Man(b1-4)GlcNAc(b1-4)GlcNAc
# Outline: as §1
# [11] = target: Man(a1-3)[Man(a1-6)]Man(a1-6)[Man(a1-3)]Man
# Outline: as §1
# [12] = target: Man(a1-3)[Man(a1-6)]Man(a1-6)[Man(a1-3)]Man(b1-4)GlcNAc(b1-4)GlcNAc
# Outline: as §1
# [13] = target: Man(a1-3)[Man(a1-6)]Man(b1-4)GlcNAc(b1-4)GlcNAc
# Outline: as §1
# [14] = target: Man(a1-3)[Man(a1-6)]Man(b1-4)GlcNAc(b1-4)[Fuc(a1-6)]GlcNAc
# Outline: as §1
# Man(a1-6)Man = target: Man(a1-6)Man
# Outline: as §1
# Man(b1-4)GlcNAc = target: Man(b1-4)GlcNAc
# Outline: as §1
# MurNAc(b1-4)GlcNAc = target: MurNAc(b1-4)GlcNAc
# Outline: as §1
# Neu5Ac(a2-3)Gal = target: Neu5Ac(a2-3)Gal
# Outline: as §1
# [15] = target: Neu5Ac(a2-3)Gal(b1-3)GalNAc
# Outline: as §1
# [16] = target: Neu5Ac(a2-3)Gal(b1-3)GalNAc(b1-3)Gal(a1-4)Gal(b1-4)Glc
# Outline: as §1
# [17] = target: Neu5Ac(a2-3)Gal(b1-3)GalNAc(b1-4)[Neu5Ac(a2-3)]Gal(b1-4)Glc
# Outline: as §1
# [18] = target: Neu5Ac(a2-3)Gal(b1-3)GalNAc(b1-4)[Neu5Ac(a2-8)Neu5Ac(a2-3)]Gal(b1-4)Glc
# Outline: as §1
# [19] = target: Neu5Ac(a2-3)Gal(b1-3)GalNAc6S
# Outline: as §1
# [20] = target: Neu5Ac(a2-3)Gal(b1-3)GlcNAc
# Outline: as §1
# [21] = target: Neu5Ac(a2-3)Gal(b1-3)GlcNAc(b1-2)Man
# Outline: as §1
# [22] = target: Neu5Ac(a2-3)Gal(b1-3)GlcNAc(b1-2)Man(a1-3)[GlcNAc(b1-4)][Neu5Ac(a2-3)Gal(b1-3)GlcNAc(b1-2)Man(a1-6)]Man(b1-4)GlcNAc(b1-4)GlcNAc
# Outline: as §1
# [23] = target: Neu5Ac(a2-3)Gal(b1-3)GlcNAc(b1-2)Man(a1-3)[Neu5Ac(a2-3)Gal(b1-3)GlcNAc(b1-2)Man(a1-6)]Man(b1-4)GlcNAc(b1-4)GlcNAc
# Outline: as §1
# [24] = target: Neu5Ac(a2-3)Gal(b1-3)GlcNAc(b1-3)Gal(b1-3)GlcNAc
# Outline: as §1
# [25] = target: Neu5Ac(a2-3)Gal(b1-3)GlcNAc(b1-3)Gal(b1-4)GlcNAc
# Outline: as §1
# [26] = target: Neu5Ac(a2-3)Gal(b1-3)GlcNAc(b1-3)GalNAc
# Outline: as §1
# [27] = target: Neu5Ac(a2-3)Gal(b1-3)GlcNAc(b1-4)Gal(b1-4)Glc
# Outline: as §1
# [28] = target: Neu5Ac(a2-3)Gal(b1-3)GlcNAc(b1-6)GalNAc
# Outline: as §1
# [29] = target: Neu5Ac(a2-3)Gal(b1-3)GlcNAc6S
# Outline: as §1
binder,measurement,setting,value
B1,glycan array binding signal (z-score),Kdn(a2-3)Gal(b1-4)Glc,-0.455
same,glycan array binding signal (z-score),Kdn(a2-3)Gal(b1-4)GlcNAc,0.345
same,glycan array binding signal (z-score),[1],-0.934
same,glycan array binding signal (z-score),Kdn(a2-6)Gal(b1-4)GlcNAc,-0.762
same,glycan array binding signal (z-score),[2],-0.358
same,glycan array binding signal (z-score),[3],-0.026
same,glycan array binding signal (z-score),Man(a1-2)Man(a1-3)Man,-0.885
same,glycan array binding signal (z-score),[4],-0.699
same,glycan array binding signal (z-score),[5],0.61
same,glycan array binding signal (z-score),[6],-0.776
same,glycan array binding signal (z-score),[7],-0.227
same,glycan array binding signal (z-score),[8],-0.831
same,glycan array binding signal (z-score),[9],-1.17
same,glycan array binding signal (z-score),Man(a1-3)[Man(a1-6)]Man,-0.286
same,glycan array binding signal (z-score),[10],-0.143
same,glycan array binding signal (z-score),[11],-0.459
same,glycan array binding signal (z-score),[12],0.138
same,glycan array binding signal (z-score),[13],0.252
same,glycan array binding signal (z-score),[14],-0.859
same,glycan array binding signal (z-score),Man(a1-6)Man,-0.451
same,glycan array binding signal (z-score),Man(b1-4)GlcNAc,1.75
same,glycan array binding signal (z-score),MurNAc(b1-4)GlcNAc,-0.36
same,glycan array binding signal (z-score),Neu5Ac(a2-3)Gal,-0.342
same,glycan array binding signal (z-score),[15],0.032
same,glycan array binding signal (z-score),[16],0.068
same,glycan array binding signal (z-score),[17],-0.308
same,glycan array binding signal (z-score),[18],1
same,glycan array binding signal (z-score),[19],-1.4
same,glycan array binding signal (z-score),[20],0.768
same,glycan array binding signal (z-score),[21],-0.341
same,glycan array binding signal (z-score),[22],-0.93
same,glycan array binding signal (z-score),[23],-0.673
same,glycan array binding signal (z-score),[24],-1.14
same,glycan array binding signal (z-score),[25],-0.456
same,glycan array binding signal (z-score),[26],-0.696
same,glycan array binding signal (z-score),[27],-0.879
same,glycan array binding signal (z-score),[28],-1.04
same,glycan array binding signal (z-score),[29],-0.407

# 2 consecutive records out of the list so far, for reference:
binder,measurement,setting,value
B1,glycan array binding signal (z-score),[21],-0.341
same,glycan array binding signal (z-score),[22],-0.93
